Measured values reported in a protein production outcome set (Wang et al. 2014).

Experiment: label from the status in PepcDB records
In the case of “MGTNKKLNSLYLASAALILFLILFSYTASAATTTCNVKGSNYQYWSDEQYPSIDLFGEEYVPLLEENDQIWEAHVDKLTRVVIDNESSYNLTGGESLDIGQGYSLQVKQIDVDGEKVWLEFYKDGQYVDDQILSTGSGDDTWNCTLDNIQGISDVVVLKAHVNQITQSATESVVQIDGIWLIDYENTTTLQIGDQLGNCTLSEIVNGTNESNLGSLVFEYVVTITDLGTLGGNYSNAEGINNKGQVVGTSQTDTGVEHAFLWQNGVMTDLETSGCDGYPKGINDNEQIVGFTFIEDDNAVHACLWENGVVTYLGVLPGGTESWPEGINNKGQVIGYSEGIGFEVHAFLWQNGTMTDIGPSDVEYSDARGINENGQVVGTSQDRYGPSRAFLWQNGVMTDLGTLGGSYSSARGINDKGQVVGVSQTDTGETHAFLWQNGVMIDLGTLGGSNSCAYGINNKRQIVGESETETGETHAFLWQNGVMTDFGTLSGISGSGAYEINENGQILGSNGTAVLWTITAPTNPVANFSASPTSGYAPLTVNFTDQSTGSPTSWNWDFGDGMNATDQNPTHTYSTAGNYTVTFTASNAAGNSTVTGIVSVTPPEDSEEIVSEIEVSDNRLREASPDTVYKSSSFIDVGSISGVGRYRDAIQFDLSEYNSDSQITNAVLSLYWYYPSGTTRPEDTVIEIYRPASAWNSSYVSWNKRDKNVAWTNEGGDWYDRNGVLQGSTPYATITIKGSSLPDNRYYELDVTDLVKEYVSGKYENTGLLIKARTESNNYIAFYSSDWTDENQKPKITVTEKEASLVTITGATDNRLREASPDSVYSDTSFIDVGSISGVGRYRDVMQFDLSECNSNSQVGNAVLSLYWYYPSGTTRPEDTVIEIYRPASAWNSSYVSWNKRDKNVAWTNEGGDWYDKNGVSQGSTPYATITIKGSSLPDNRYYELDVTDLVKEYVSGKYENTGLLIKARTENNNYIAFYSSDCGNESQVPKLSITKKTPVVTVNATVTDAMDNRLREASPSTVYQSSSFIDVGSINGVGRYRDVIRFDLSEYTGSVEVNNAALSLYWYYPSGTTRPEDTVIEIYRPASAWNSSYVSWNKKDKNVAWTNAGGDWYDRNGVLQGSTPYATMTIKGSSLPDNIYYELDVTELVKEYVSGKYENTGFLIKAHTESNNYIAFYSSDCGNESQVPKLQLVYS”, the protein production is reported as “failed”.
With “MIRPGQAQQEPSSLNRPDQHVTLRPAAKQDLPVFMRELQEAFAVAVIEEFGSSPSEPIPSDRDIQQSFDAPGAEVLHIVADGERVGGVVVRIDAATQHNSLDLFFIATHAHGRGLGTAAWRAIEQRYPQTKVWQTHTPYFERRNIHFYVNKCGFKIVEYYNARHPDPHEHELEHEPDGLPPDGGFFRFEKIC” the protein production was “failed”.
In the case of “MKKIKTAFALPLFWLLFKVSKDMHKIQVDGQAWCQWQHKNFTLWNMCSLFIGFKEFRNLFYYRIGYLHHLIEWIFPRMTNLYITTPRSDVDSGLIIQHGFATIISAKQIGKNCKIYQQVTIGYDHTLQAPIIGDNVEICCGAKVIGGVTIGNNVIIGANAVVIKDVPNNCIVAGVPAKIIKKILEHHHHHH”, the protein production is reported as “failed”.
In the case of “MNKQRGTYSEVSLAQDPKRQQRKLKGNKISISGTKQEIFQVELNLQNASSDHQGNDKTYHCKGLLPPPEKLTAEVLGIICIVLMATVLKTIVLIPCIGVLEQNNFSLNRRMQKARHCGHCPEEWITYSNSCYYIGKERRTWEERVCWPVLRRTLICFL”, the protein production is reported as “failed”.
In the case of “MNLEQALSGRLPIVYSDRFLDHDTGLGHPERPERLSATVTHLRSQPWSTALDWYLPTDLATRSPLPWIETCHSLHYIDSVQHLAERGGGSLDPDTPCSAASYEVALLAVNAWLDGIDRLLTRQSQAAFALTRPPGHHALATHGMGFCLFGNAAIAARYALAQGLTKVAIVDWDVHHGNGTQALVEQQPAIAYVSLHQSPAYPGTGSASETGFYENVRNLPLPPGSDGQDYRQCFETIVLPFLRAWQPQLLIVSAGYDAAAADPLANMRLQPADYGALTQQLRSLQIPILFGLEGGYDLPALSASVAATLAACLEPPSAPKQSG”, the protein production is reported as “failed”.
For “MPGKNSKKMIGACVVTAALLCAPSALKAEGMLSHYTCVADAIQKDNRPEPAKRLFRSQAVENEIIRVQKLLRNSKLAWMFTNCFPNTLDTTVHFRKGKDGKPDTFVYTGDIHAMWLRDSGAQVWPYVQLANSDPELKTMLAGVINRQFKCINIDPYANAFNDGPKGGEWMSDLTDMKPELHERKWEIDSLCYPLRLAYQYWKTTGDTSIFDEEWIQAITNILRTFKEQQRKDGVGPYKFQRKTERALDTVTNDGLGNPVKPVGLIVSTFRPSDDATTLQYLVPSNFFAVSSLRKAAEILTTVNKKTALANECKALANEVETALKKYAVYNHPKYGKIYAFEVDGFGNHMLMDDANVPSLLAMPYLGDVSIDDPIYQNTRRFVWSLDNPYFFKGKAGEGIGGPHIGYDMVWPMSIMMKAFTSKDDAEIKSCIEMLMNTDAGTGFMHESFHKDNPEKFTRAWFAWQNTLFGELILKLVNEGKVDMLNSIQLEHHHHHH”, the protein production was “not failed”.
For “MPSVQIGPPPASQSAIEAVRTVIITDEDLVKEKVCAICKEEFEVGEEGKELKCLHLYHSSCIVSWLNIHNTCPICRFEVNLGVSESNVDEGGSYNIDNDRSNRFRTRVCSLWPLRMMIDWVHNLIGKIPPPDIAFMAFLLCLYGF”, the protein production was “failed”.
With “MRLGTSAFSDAPPVELRANWSEEDLETVIRAVYRQVLGNDYVMASERLVSAESLLRNGKITVREFVRAVAKSELYKEKFLYGNFQTRVIELNYKHLLGRAPYDESEVIFHLDLYENEGFDADIDSYIDSPEYTNSFGDWVVPYYRGFNTQPGQKTVGFNRIFRLYRGYANSDRAQAEGSMSRLARDLATNRANTVVPPSNSDTAFAYYTPSADVPPRACLGGSFGESGRVYRIEVAGIRQPGYPGVRRSSTAFLVPYEQLSAKMQQLQRTGARIISVNPALEHHHHHH” the protein production was “failed”.
For “MRQADSQTQPSPAEQEMPQPAGPSNSSPPTMGPQQTGSRKRKAAEVDQGAGTSSSPGPAAAMATVGAGNAEGSLMLTKRPRRPIAHLSMVNYLKGRALGADGHPGFAGFEGDLRSYGVLRLPELLRERQLTLGPLNKVFASQWLNARQVVCGTKCNTLFVVDVKTDHIMRIPLMRDRVPDLSRGPPSCGIHAVELNPSKTLLATGGENPNSLAVYQLPTLDPVCLGDCQGHRDWIFAIAWMSDTVAVSGSRDGTVALWKVDPDMFNGSIAWHKDAGLPVYAHISPTDMEAIPKATTNPGNRKVRALAFSNKNQELGAVSLDGYFHLWKARSSLSRLLSLRLPYCRENVCLTYCDEFSLYAVGSQSHVSFLDLRQGQQNIPPLCSREGGTGVRSLSVHQHIVTVGTGHGSLLFYDIRAQKFLEERSAANPDMFPVPSGRKLKLTCGSGWINQDDLLENYVAGVEDFPNALYTHCYNWPEMKLFVGGGPLASGLHGNYAGLWS”, the protein production was “failed”.
For “MSFRDDNTEEGRNDLRRPFLHTGSWYRMGSRQSSMLESSQVIRDSSISVLACVLIVALGPIQFGFTCGYSSPTQAAITKDLGLTVSEYSVFGSLSNVGAMVGAIASGQIAEYVGRKGSLMIAAIPNIIGWLSISFAKDTSFLYMGRLLEGFGVGIISYTVPVYIAEIAPQTMRGALGSVNQLSVTIGIMLAYLLGLFVPWRILAVLGVLPCTLLIPGLFFIPESPRWLAKMGLTDDFETSLQVLRGFETDITVEVNEIKRSVASSSKRSAVRFVDLKRRRYYFPLMVGIGLLALQQLGGINGVLFYSSTIFESAGVTSSNVATFGVGVVQVVATGIATWLVDKAGRRLLLMISSIGMTISLVIVAVAFYLKEFVSPDSNMYNILSMVSVVGVVAMVISCSLGMGPIPWLIMSEILPVNIKGLAGSIATLLNWFVSWLVTMTANMLLAWSSGGTFTLYALVCGFTVVFVSLWVPETKGKTLEEIQALFR”, the protein production was “failed”.
In the case of “MSLKIQFDFPASFWTEALPIGNGNLGAMVFGKVEKERIALNEDTLWSGYPKDWNNPKAKEVLPKVRELIAQEKYEEADQLSRDMMGPYTQSYLPFGDLNIFMDHGQVVAPHYHRELDLSTGIVTVTYTIGGVQYTRELFVTYPDRAIVVRLTASKEGFLSFRAKLDSLLRHVSSVGAEHYTISGTAPEHVSPSYYDEENPVRYGHPDMSQGMTFHGRLAAVNEGGSLKVDADGLHVMGATCATLYFSASTSFDPSTGASCLERDPSLRTIETIKAICKRGYKEIVNRHLEDYAKLFNRVSLHLGESIAPADMSTDQRIKEYGSRDLGLVELLFQYGRYLMIASSRPGTQPANLQGIWNEETRAPWSSNYTLNINAEMNYWPAETCNLAELHKPLIHFIERLAANGKKTAEINYGARGWVAHHNADLWGQTAPVGDFGHGDPVWAFWPMGGVWLTQHLWEHYTFGEDEAYLRDTAYPIMKEAALFCLDWLIENEAGYLVTSPSTSPEQRFRIGEKGYAVSSATTMDLSLIAECFDNCIQAAKRLSIDEDFVKALSDAKQRLLPLQIGKRGQLQEWSNDFEDEDVHHRHVSHLVGIYPGRLITEQSAPNLFEAAKTSLEIRGDEGTGWSLGWKISLWARFKDGNRCERLLSNMLTLIKEDESMQHRGGVYANLFGAHPPFQIDGNFSATAGIAEMLLQSHQGYLEFLPALPDSWKDGYVKGLRGRGGYEVDLAWTNGALVKVEIVSTKTQTCEVLTRISMRITESGEEVEGDVLDSGRMSFQVEKGKRYVLNRTTDGEGHHHHHH”, the protein production is reported as “not failed”.
In the case of “MSQAPKRKRPEDLRSHRWYGVKDLRAFGHRSRTAQMGYHRSDYAGKPVIAIINTWSDINPCHSHFKQRVEEVKRGIWQAGGFPVEMPAMSLSEPFQKPTTMLYRNLLAMETEELLRSYPADGCVLMGGCDKTTPALLMGAVSMGLPTVFVPAGPMLRGNWNGNTLGSGSDTWKYWAELRAGNITEEDWQGVEDGIARSPGHCMTMGTASTMTAAVEALGLCLSGYSSIPAPDSRHAQMASLTGKRIVEMVWEDLKPADILTAASFDNAVRTVLALSGSTNAVVHLIALARRAGFGLDLERFDHLARSTPVLANLRPAGQYLMEDFYYAGGLRALLAQLGDLLDTRQMTVDGRTLGENIAGARVFNDEVIRSRERALIERDGLAVLRGNLAPDGAVIKPAAMEARLQRHTGRAVVFKDYNDMAERIDAPDLDIDADSVIVLQNAGPQGAPGMPEWGQLPIPQKLLKQGVRDMVRISDARMSGTSYGACVLHVAPEAYVGGPLALVRSGDRIALDVPGRRIDVLISDEELAARKAAWQAPPPKFERGFGVLYLKHIGQADSGCDFDFLQTRPQQAAEGEPEIH”, the protein production is reported as “failed”.
With “MSTEKTKLGVHSEAGKLRKVMVCSPGLAHQRLTPSNCDELLFDDVIWVNQAKRDHFDFVTKMRERGIDVLEMHNLLTETIQNPEALKWILDRKITADSVGLGLTSELRSWLESLEPRKLAEYLIGGVAADDLPASEGANILKMYREYLGHSSFLLPPLPNTQFTRDTTCWIYGGVTLNPMYWPARRQETLLTTAIYKFHPEFANAEFEIWYGDPDKDHGSSTLEGGDVMPIGNGVVLIGMGERSSRQAIGQVAQSLFAKGAAERVIVAGLPKSRAAMHLDTVFSFCDRDLVTVFPEVVKEIVPFSLRPDPSSPYGMNIRREEKTFLEVVAESLGLKKLRVVETGGNSFAAEREQWDDGNNVVCLEPGVVVGYDRNTYTNTLLRKAGVEVITISASELGRGRGGGHCMTCPIVRDPIDY” the protein production was “not failed”.
With “RFTWSMKTTSSMDPSDMMREIRKVLDANNCDYEQRERFLLFCVHGDGHAENLVQWEMEVCKLPRLSLNGVRFKRISGTSIAFKNIASKIANELKL” the protein production was “not failed”.
